The list shows a part of the results. These are further read-outs of the screen, such as a control signal, another cell line or another target. No call is given for them. Compounds called inactive in the main read-out are mostly missing here. Words in brackets tell the shape of the fitted curve; partial curves, single points and poor fits give uncertain potencies.
Experiment: qHTS Assay for Lipid Storage Modulators in Drosophila S3 Cells;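 as to cell number change: cells counted by Cell Tracker Red CMTPX staining in the red channel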
Conditions: BODIPY lipid droplet fluorescence, 18-24 h; for cell number change: measured here: cell count max response, cells fed with added oleic acid
Method in brief: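 Laser-scanning cytometry quantifies lipid droplet accumulation (500–530 nm total intensity; droplet/cell object ratio) in oleic acid-fed (400 uM added) Drosophila S3 cells treated with a concentration series. 20 uM Triacsin C defined 100% inhibition.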

[1] = measured here: cell number channel AC50, cells fed with added oleic acid
[2] = measured here: lipid fluorescence (Fed channel) AC50, cells fed with added oleic acid

Structure (SMILES): O=C(Nc1nc2ccccc2n1Cc1ccc(Cl)cc1)c1ccco1
- cell number change: 1.44%

Structure (SMILES): OC(COCC(F)(F)C(F)(F)C(F)(F)C(F)F)Cn1c2ccccc2c2ccccc21 (stereo not drawn)
- cell number change: -48.8%
- AC50 [1]: 29.1 µM [falling, single point]

Structure (SMILES): Cn1cnnc1SCc1ccccc1
- cell number change: -42.5%
- AC50 [1]: 29.1 µM [falling, single point]

Structure (SMILES): CCc1ccc(-c2nc(CS(=O)CC(=O)NCCN3CCCCCC3)c(C)o2)cc1 (stereo not drawn)
- cell number change: -34.9%
- AC50 [1]: 0.146 µM [falling, full curve, poor fit]

Structure (SMILES): O=c1[nH]c(CSc2nnnn2-c2ccccc2)nc2ccccc12
- AC50 [2]: 5.62 µM [rising, single point]

Structure (SMILES): O=C(N/N=C/C1CC2C=CC1C2)c1ccccc1O (stereo not drawn)
- cell number change: -11.3%

Structure (SMILES): O=C1C=CCC(/C=C/c2ccccc2)O1 (stereo not drawn)
- cell number change: -25.8%
- AC50 [2]: 2.59 µM [falling, full curve, poor fit]

Structure (SMILES): CC(C)(C)c1ccc(C(=O)N2CCC(C(=O)c3ccccc3)CC2)cc1
- cell number change: -33%
- AC50 [1]: 25.9 µM [falling, partial curve, poor fit]
- AC50 [2]: 16.4 µM [falling, partial curve, poor fit]

Structure (SMILES): CC(C)n1c(=S)[nH]c2scc(-c3cccs3)c2c1=O
- cell number change: -3.93%
- AC50 [2]: 0.291 µM [falling, full curve, poor fit]

Structure (SMILES): COc1ccc2[nH]c(=O)c(CNc3cccc(C)c3)cc2c1
- cell number change: -31.7%
- AC50 [1]: 0.184 µM [falling, full curve]
- AC50 [2]: 0.411 µM [falling, partial curve]

Structure (SMILES): Cc1ccc(Nc2nc(N)nc(CN3CCN(Cc4ccc5c(c4)OCO5)CC3)n2)c(C)c1
- AC50 [1]: 5.8 µM [falling, single point]
- AC50 [2]: 0.058 µM [rising, full curve, poor fit]

Structure (SMILES): COCCc1ncc(CN2CCCC(C(=O)Nc3cccc(-c4cccc(C)c4)c3)C2)cn1 (stereo not drawn)
- cell number change: -13.3%
- AC50 [2]: 29.1 µM [falling, single point]

Structure (SMILES): CC1CCCCN1C(=O)CCn1c(=O)oc2ccccc21 (stereo not drawn)
- cell number change: -26.8%
- AC50 [1]: 0.092 µM [falling, full curve, poor fit]

Structure (SMILES): N=c1c2c(ncn1Cc1ccco1)Oc1ccc3ccccc3c1C2c1ccccc1 (stereo not drawn)
- AC50 [1]: 6.51 µM [rising, single point]
- AC50 [2]: 20.6 µM [falling, single point]

Structure (SMILES): CC(C)(C)NC(=O)N1CCC(CO)(Cc2ccccc2Cl)CC1
- cell number change: -45.9%
- AC50 [1]: 29.1 µM [falling, single point]
- AC50 [2]: 29.1 µM [falling, single point]

Structure (SMILES): Nc1cccc2c3c(oc12)CCCC3
- cell number change: -23.2%
- AC50 [2]: 0.58 µM [rising, single point]

Structure (SMILES): NC(=O)CSc1nnc(-c2ccc([N+](=O)[O-])cc2)o1
- cell number change: -44.4%
- AC50 [1]: 0.651 µM [falling, full curve]
- AC50 [2]: 0.731 µM [falling, full curve]

Structure (SMILES): CCCN(Cc1nnc(-c2cccs2)o1)C(=O)CN1C(=O)NC2(CCCCC2C)C1=O (stereo not drawn)
- cell number change: -34%
- AC50 [1]: 23.1 µM [falling, single point]
- AC50 [2]: 8.2 µM [rising, partial curve]

Structure (SMILES): CCCCC(c1nnnn1CC1CCCO1)N1CCN(c2nc3ccccc3s2)CC1 (stereo not drawn)
- cell number change: -7.04%
- AC50 [2]: 4.61 µM [rising, partial curve]

Structure (SMILES): CSc1nsc(SCC(=O)Nc2ccc(NC(C)=O)cc2)n1
- cell number change: 3.42%

Structure (SMILES): CCSc1ccccc1C(=O)NCc1ccco1
- cell number change: 6.8%

Structure (SMILES): FC(F)(F)c1cccc(N2CCN(CC3CC=CCC3)CC2)c1 (stereo not drawn)
- cell number change: -27.5%
- AC50 [2]: 0.731 µM [falling, single point]

Structure (SMILES): COc1ccc(-n2c(NCCN(C)C)nc3sc4c(c3c2=O)CCCCC4)cc1
- cell number change: 4.89%
- AC50 [1]: 0.13 µM [falling, full curve, poor fit]

Structure (SMILES): COc1cc(NC(=O)CN2C(=O)NC(CC(C)C)C2=O)cc(OC)c1OC (stereo not drawn)
- cell number change: 26.7%
- AC50 [1]: 2.31 µM [falling, single point]
- AC50 [2]: 3.26 µM [falling, single point]

Structure (SMILES): S=c1[nH]cnc2sc(-c3ccccc3)cc12
- AC50 [2]: 0.651 µM [rising, full curve, poor fit]

Structure (SMILES): O=C(COC(=O)c1ccc(Cl)cc1O)NC(=O)C1CCCCC1
- cell number change: 3.42%
- AC50 [2]: 4.61 µM [falling, single point]

Structure (SMILES): CCOC(=O)Cn1nnnc1CN(Cc1ccccc1)Cc1cc2cc(CC)ccc2[nH]c1=O
- cell number change: -20.4%

Structure (SMILES): Cc1ccc(C(=O)NC(C(=O)NC2CCCC2)c2ccccc2)cc1 (stereo not drawn)
- cell number change: -3.15%
- AC50 [2]: 18.4 µM [rising, single point]

Structure (SMILES): COc1ccc(C(C(=O)NC2CCCC2)N(C(=O)Cc2cccs2)C2CC2)cc1OC (stereo not drawn)
- cell number change: -6.58%

Structure (SMILES): COc1cc(Cc2ccc(N)c(OC)c2)ccc1N
- cell number change: 31.7%
- AC50 [2]: 1.46 µM [rising, partial curve]

Structure (SMILES): CC1(C)CC(=O)c2cn3c(nc2C1)nc1ccccc13
- cell number change: -6.72%
- AC50 [1]: 0.92 µM [falling, full curve]
- AC50 [2]: 0.00411 µM [falling, full curve, poor fit]

Structure (SMILES): COc1cccc(OCc2nc3ncc(Br)cc3[nH]2)c1
- cell number change: 17.1%
- AC50 [2]: 0.00461 µM [rising, full curve, poor fit]

Structure (SMILES): Cc1nc(NC(=O)CSc2nnc(-c3ccc4c(c3)OCO4)o2)c(Cl)cc1Cl
- cell number change: 14.9%
- AC50 [2]: 2.91 µM [rising, partial curve]

Structure (SMILES): O=C(O)c1ccc(Cl)c(S(=O)(=O)N2CCCC2)c1
- cell number change: 24.3%
- AC50 [2]: 0.517 µM [rising, partial curve]

Structure (SMILES): O=P(O)(CN1CCCCC1)CN1CCCCC1
- cell number change: -89.9%
- AC50 [2]: 20.6 µM [falling, partial curve]

Structure (SMILES): COC(=O)[C@@H]1CC(O)CN1C(=O)C12CC3CC(CC(C3)C1)C2 (stereo partly drawn)
- cell number change: -17.6%
- AC50 [2]: 8.2 µM [falling, partial curve, poor fit]

Structure (SMILES): O=C1N=C(N2CCOCC2)S/C1=C1\C(=O)N(Cc2ccccc2)c2ccc(Br)cc21
- cell number change: 7.07%

Structure (SMILES): CNC(=O)NC(=O)CSc1nc2sccc2c(=O)n1-c1ccccc1
- cell number change: -13.3%
- AC50 [2]: 6.51 µM [falling, single point]

Structure (SMILES): CC1CCCN(C(=O)c2cc3ccccc3cc2O)C1 (stereo not drawn)
- cell number change: 37.6%

Structure (SMILES): CC1CC(C)CN(C(=O)COC(=O)c2ccc[nH]c2=O)C1 (stereo not drawn)
- cell number change: 0.54%
- AC50 [2]: 0.00411 µM [falling, full curve, poor fit]

Structure (SMILES): COc1cccc(N2CC(NC(=O)C(=O)c3c(C)[nH]c4ccccc34)CC2=O)c1 (stereo not drawn)
- cell number change: 38%
- AC50 [1]: 0.58 µM [rising, partial curve]

Structure (SMILES): C=CCNC(=O)NC(=O)COC(=O)/C=C/c1cccc([N+](=O)[O-])c1
- cell number change: -11.3%
- AC50 [1]: 0.00461 µM [falling, full curve, poor fit]
- AC50 [2]: 16.4 µM [falling, partial curve]

Structure (SMILES): Cc1noc(C)c1S(=O)(=O)N(CC(=O)N1CCCCCC1)c1ccc(C(C)C)cc1
- cell number change: 2.5%
- AC50 [2]: 25.9 µM [falling, single point]

Structure (SMILES): C=CCn1cccc(C(=O)Nc2ccc(OC)c(Cl)c2)c1=O
- cell number change: 16.8%

Structure (SMILES): CC1CCCN(C(=O)c2ccc(S(=O)(=O)Nc3ccccc3Cl)cc2)C1 (stereo not drawn)
- cell number change: -17.4%
- AC50 [2]: 14.6 µM [falling, partial curve, poor fit]

Structure (SMILES): COc1ccc(CCNC(=O)Nc2ccccc2[N+](=O)[O-])cc1
- cell number change: 111%
- AC50 [1]: 16.4 µM [rising, partial curve]
- AC50 [2]: 25.9 µM [rising, single point]

Structure (SMILES): O=C(Nc1cc(S(=O)(=O)N2CCCCC2)ccc1Cl)c1ccc(F)cc1
- cell number change: 15.2%
- AC50 [1]: 6.51 µM [rising, single point]
- AC50 [2]: 6.51 µM [rising, partial curve, poor fit]

Structure (SMILES): Cc1ccc(C)c(Cn2c(=O)n(C)c(=O)c3sccc32)c1
- cell number change: 35.1%
- AC50 [1]: 32.6 µM [rising, single point]
- AC50 [2]: 29.1 µM [rising, single point]

Structure (SMILES): O=C(CCc1nc2ccccc2[nH]1)NCc1ccc2c(c1)OCO2
- cell number change: 30.7%
- AC50 [1]: 0.731 µM [rising, full curve, poor fit]

Structure (SMILES): O=C(NNS(=O)(=O)c1ccc(C(=O)NC2CCCC2)cc1)c1ccncc1
- cell number change: -49.8%
- AC50 [1]: 25.9 µM [falling, single point]
- AC50 [2]: 18.4 µM [falling, partial curve]

Structure (SMILES): N#C/C(=C\c1ccc([N+](=O)[O-])cc1)C(=O)NCCCn1ccnc1
- cell number change: 1.39%

Structure (SMILES): Cn1c2c(c(=O)n(C)c1=O)C(c1cccc(F)c1)C(C#N)=C(N)O2 (stereo not drawn)
- cell number change: -4.97%
- AC50 [2]: 0.00651 µM [falling, full curve, poor fit]

Structure (SMILES): O=C(CN1C2=NCCN2c2ccccc21)c1ccc(Br)cc1
- cell number change: 12.3%
- AC50 [2]: 5.17 µM [rising, full curve, poor fit]

Structure (SMILES): CCOC(=O)C1=C(CN2CCN(C(=O)c3ccco3)CC2)NC(=O)NC1c1ccc(C)cc1 (stereo not drawn)
- cell number change: -14.9%
- AC50 [2]: 6.51 µM [falling, single point]

Structure (SMILES): COC(=O)c1ccccc1NC(=O)c1cnn2c(C(F)F)cc(C3CC3)nc12
- AC50 [1]: 0.58 µM [rising, single point]
- AC50 [2]: 0.58 µM [rising, single point]

Structure (SMILES): NC(=O)N/N=C/c1coc2ccc3ccccc3c2c1=O
- cell number change: -56.5%
- AC50 [1]: 10.3 µM [falling, partial curve]
- AC50 [2]: 10.3 µM [falling, partial curve]

Structure (SMILES): CCOC(=O)CN1C(=O)NC2(CCCc3ccccc32)C1=O (stereo not drawn)
- cell number change: 9.21%
- AC50 [2]: 0.631 µM [falling, partial curve, poor fit]

Structure (SMILES): COc1ccc(NC(=O)CCCN2C(=O)CN(C)C2=O)cc1Cl
- cell number change: 5.58%
- AC50 [1]: 0.164 µM [falling, full curve, poor fit]
- AC50 [2]: 0.164 µM [falling, full curve, poor fit]

— PubChem BioAssay AID2685 (National Center for Advancing Translational Sciences (NCATS), 2010)
